Results on 2 molecules are retold here after PMC7702304.

The chains behind the UniProt entries cited, without tags or fusion partners. Residues count along the entry.
UniProt Q5S007, residues 1-552: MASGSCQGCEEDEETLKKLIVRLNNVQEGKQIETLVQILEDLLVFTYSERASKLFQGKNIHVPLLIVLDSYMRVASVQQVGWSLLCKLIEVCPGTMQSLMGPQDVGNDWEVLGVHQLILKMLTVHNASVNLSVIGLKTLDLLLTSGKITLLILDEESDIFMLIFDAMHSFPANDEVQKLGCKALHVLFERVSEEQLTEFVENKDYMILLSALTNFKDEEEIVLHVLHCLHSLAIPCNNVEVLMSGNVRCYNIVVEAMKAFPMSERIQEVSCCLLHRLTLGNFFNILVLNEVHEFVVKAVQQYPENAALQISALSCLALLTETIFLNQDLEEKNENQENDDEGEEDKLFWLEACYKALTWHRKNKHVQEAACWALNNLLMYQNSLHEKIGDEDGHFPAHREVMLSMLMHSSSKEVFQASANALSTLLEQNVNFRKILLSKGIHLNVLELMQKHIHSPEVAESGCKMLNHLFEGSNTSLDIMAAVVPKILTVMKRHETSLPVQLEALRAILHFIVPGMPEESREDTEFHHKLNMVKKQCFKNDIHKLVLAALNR

These are yes or no findings as the source states them, for the method shown. In cells and extracts the contact can be indirect. Some entries that bind do so weakly or less than the wild type.

The assay addresses 2X 6-His LRRK2 1-552 (UniProt Q5S007). Description: pull-down; 6-His LRRK2 1-552 immobilised on nickel-NTA agarose; 1.5 mg intestinal tissue lysate diluted to 10 ml in low salt buffer (50 mM Tris-HCl pH 7.5, 150 mM NaCl, 5 mM MgCl2, 10% glycerol, 0.5 mM TCEP, 20 mM imidazole; ~0.03% Triton X-100) with 100 uM GTP-gamma-S; 2 h at 4°C; eluted with 500 mM imidazole; immunoblot; only the target purified. (A western blot detects proteins with antibodies after separation by electrophoresis.)

B1: transgenic Rab29 (protein, UniProt Q91YQ1 1-204)
chain: MGSRDHLFKVLVVGDAAVGKTSLVQRYSQDSFSKHYKSTVGVDFALKVLQWSDSEMVRLQLWDIAGQERFTSMTRLYYRDASACVIMFDVTNATTFSNSQRWKQDLDSKLTLPSGEPVPCLLLANKSDLSPWAVSRDQIDRFSKENGFTGWTETSVKENKNINEAMRVLVEKMMNNSREDVMSLSTQGNYINLQAKPSSGWTCC
For the molecule B1, the binding entry was “binds”.

B2: endogenously expressed wildtype Rab29 (protein, UniProt Q91YQ1 1-204)
chain: B1 chain
As for B2, the binding result is recorded as “binds”.
